# Measured values: PubChem BioAssay AID2685 (National Center for Advancing Translational Sciences (NCATS), 2010)
# The campaign covered roughly 320,000 compounds. About 2,100 (0.66%) were called active. Inconclusive means that the source gave no clear call. Such entries were picked first, then a sample of the others. Calls come from the whole dose curve; as a rule, active = well fitted inhibition curve with a large enough effect in the signal ratio, with a control signal flat (not every such curve was filed as active); inconclusive = small, poorly fitted or top-dose-only effect, or effect the other way, or a change in a side signal; inactive = flat fitted curve, though single readings scatter; the % refers to the signal ratio. Potencies beside an inconclusive call are fits to weak or partial responses and may not hold up.
# Assay: qHTS Assay for Lipid Storage Modulators in Drosophila S3 Cells
# Details: BODIPY lipid droplet fluorescence, 18-24 h, cells fed with added oleic acid; lipid storage change, negative = inhibition: at 46.1 µM (top of the series) unless noted
# Procedure, shortened: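 Drosophila S3 cells loaded with oleic acid (400 uM, as added) and compounds at several concentrations; lipid droplets imaged by 488-nm laser-scanning cytometry, 500–530 nm intensity and object ratio to cell channel. Percent activity normalized to 20 uM Triacsin C.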
# % is set by controls: 0 for no effect and ±100 for the full control effect; potency is the fitted concentration of half-maximal effect.
Structure (SMILES),Potency,"lipid storage change, negative = inhibition"
Cc1ccc(S(=O)(=O)Nc2c(C)n(C)n(-c3ccccc3)c2=O)cc1,"inconclusive: 0.206 µM [falling, full curve, poor fit]",
O=C1NCCN/C1=C\C(=O)c1ccc(Br)cc1,,inconclusive: -24.8%
CCCCn1c(N)c(N(CC(C)C)C(=O)CN(C)S(=O)(=O)c2ccc(NC(C)=O)cc2)c(=O)[nH]c1=O,,inconclusive: 3.89%
O=C(CN1CCCc2ccccc21)NC(=O)NCc1ccccc1,,inconclusive: 11.4%
Cc1cccc(C(C)C)c1NC(=O)CN1C(=O)NC2(CCc3ccccc32)C1=O (centres undefined),,inconclusive
CCc1ccccc1NC(=O)C1CCCN(c2nccc(C)n2)C1 (centres undefined),"inconclusive: 29.1 µM [activator, partial curve]",
COc1ccc(OCC(=O)Nc2cccc(S(=O)(=O)N(C)c3ccccc3)c2)c([N+](=O)[O-])c1,"inconclusive: 2.06 µM [activator, partial curve]",
Cn1cc([C@@H]2C[C@H]3CN(Cc4cccc(Cl)c4)C(=O)[C@]34CCCN24)c2ccccc21,"inconclusive: 29.1 µM [falling, single point]",
O=C(NCc1ccccc1)C1CC(=O)N(C2CCCCC2)C1 (centres undefined),,inconclusive: -9.43%
O=C(Nc1ccccc1C1CC1)c1cccs1,"inconclusive: 13 µM [activator, partial curve, poor fit]",
N#C/C(=C\c1c(N2CCC(C(N)=O)CC2)nc2ccccn2c1=O)C(=O)NC1CCCCC1,active: 0.164 µM,
COCCN1C(=O)N(c2cccc(OC)c2)C(=O)C1CC(=O)Nc1ccc(Cl)cc1 (centres undefined),,inconclusive: 36.5%
O=C(Nc1cccc2cccc(NC(=O)c3ccco3)c12)c1ccco1,"inconclusive: 10.3 µM [activator, partial curve]",
N#CCCn1c(-c2nonc2NC(=O)c2ccccc2Cl)nc2ccccc21,,inconclusive: -5.96%
COc1cc(/C=C/C(=O)OCC(=O)Nc2cc(C)on2)ccc1OCC#N,,inconclusive
COc1cc(CN2CCN(Cc3ccc4cc(F)ccc4n3)CC2CCO)cc(OC)c1 (centres undefined),,inconclusive: -43.4%
CCOC(=O)c1c(NC(=O)CN2C(=O)c3ccccc3C2=O)sc(Cc2ccc3c(c2)OCO3)c1C,"inconclusive: 1.3 µM [activator, full curve, poor fit]",
CC(=O)N1c2ccc(S(=O)(=O)N3CCC(C(=O)NCc4ccc(Cl)cc4)CC3)cc2CC1C (centres undefined),,inconclusive: -21.3%
CCOC(=O)N1CCN(C(=O)c2ccccc2NC(=O)c2ccc(F)cc2)CC1,,inconclusive: -27.4%
O=C(Nc1ccccc1)c1nc[nH]c1C(=O)N1CCN(c2ccccc2)CC1,,inconclusive: 7.21%
O=C1Nc2ccccc2N2CCCC12 (centres undefined),,inconclusive: -27.2%
CCCCOCCCNC(=O)Cc1ccccc1OC,,inconclusive: -22.1%
COCCNC(=O)c1ccc(NS(C)(=O)=O)cc1,,inconclusive: 4.74%
CC(=O)N=c1sc2c3ccccc3ccc2n1C,,inconclusive: -12.1%
Cc1ccc(/C=C/C(=O)Nc2ccc(S(=O)(=O)Nc3onc(C)c3C)cc2)cc1,,inconclusive: 42.4%

Structure (SMILES),Potency,"lipid storage change, negative = inhibition"
Oc1c(Cl)cc(Cl)cc1CNc1nc2ccccc2[nH]1,,inconclusive: 12.3%
COc1ccc(C(=O)NC(=S)NNC(=O)CNC(=O)C2CCCCC2)cc1,,inconclusive: 4.91%
CN(CCC#N)c1ccc(/C=C(\C#N)c2ccccn2)cc1,"inconclusive: 29.1 µM [falling, single point]",
Cn1c(=O)c(C(=O)COC(=O)c2cc(-c3ccco3)nc3ccccc23)c(N)n(CC2CC2)c1=O,,inconclusive: -17.1%
COc1ccc(CN(C)CC(=O)Nc2sc3c(c2C#N)CCC3)c(OC)c1,,inconclusive: 10.1%
CCOC(=O)C1=C(C)C2C3C(=O)N(c4cc(C)ccc4C)C(=O)C3C1(C)C1C(=O)N(c3cc(C)ccc3C)C(=O)C21 (centres undefined),"inconclusive: 29.1 µM [falling, single point]",
CCOC(=O)CSc1nc(N)c(C#N)c(CC(C)C)c1C#N,,inconclusive: 2.95%
CCOc1ccccc1N/C(=N/c1nc(C)cc(C)n1)NC(=O)Nc1ccc(Cl)c(Cl)c1,"inconclusive: 0.731 µM [activator, full curve, poor fit]",
CN1CCC(N(C)C(=O)c2cc(=O)c3ccccc3o2)CC1,"inconclusive: 0.82 µM [falling, full curve, poor fit]",
Cn1c(=O)[nH]c(=O)c2c1nc(N1CCCCCC1)n2CC(=O)c1ccccc1,,inconclusive: -1.72%
CCn1c(SCC(=O)Nc2nc(C)c(C(=O)OC)s2)nnc1C(C)C,,inconclusive: 10.5%
COc1ccccc1-c1cc(C(=O)NCc2ccco2)no1,,inconclusive: 18.1%
Fc1ccc2c(c1)/C(=N/Nc1ccccn1)CCS2,"inconclusive: 3.66 µM [activator, partial curve, poor fit]",
CCOc1ccc(OCC)c(NC(=O)CCn2cccc2)c1,,inconclusive: -0.615%
COc1ccccc1N1C(=O)C2ON(c3ccccc3)C(c3ccc(N(C)C)cc3)C2C1=O (centres undefined),"inconclusive: 29.1 µM [falling, single point]",
CCOC(=O)c1c(NC(=O)CSc2nc3ccccc3o2)sc(C(C)=O)c1C,,inconclusive: 29.1%
Cc1ccc(SCc2nc3ccccc3n2CC(=O)Nc2ccc(Cl)cc2)cc1,active: 11.6 µM,
COc1cccc(NC(=O)C/C(C)=N/NC(=O)c2ccccc2Cl)c1,,inconclusive: 14.7%
CCN(CC(=O)Nc1c(F)cccc1F)C(=O)C1CC(=O)N(c2ccc3c(c2)OCCO3)C1 (centres undefined),,inconclusive
CC1CCCN(S(=O)(=O)c2ccc(Cl)s2)C1 (centres undefined),"inconclusive: 6.51 µM [falling, single point]",
Cc1nnc(-c2ccco2)c2cn(-c3cccc(Br)c3)nc12,"inconclusive: 0.731 µM [rising, full curve, poor fit]",
CC(C)Cc1cc(C(=O)N2CCC(N3CCC(C(=O)N4CCCC4)CC3)CC2)n[nH]1,,inconclusive: 14.4%
CCN(CC)C(=O)COc1ccc2oc(C)c(C(=O)OC(C)C)c2c1,"inconclusive: 3.26 µM [activator, partial curve]",
CC12CCC(C(=O)Nc3ccccc3)(C(Br)C1=O)C2(C)C (centres undefined),,inactive: -1.99%
O=C(COC(=O)c1ccc(NS(=O)(=O)c2cccs2)cc1)NCc1ccco1,"inconclusive: 0.82 µM [falling, full curve, poor fit]",

Structure (SMILES),Potency,"lipid storage change, negative = inhibition"
Cc1ccc(C(=O)N2CCN(C(=O)CN3CCCC3)C2)cc1,,inconclusive: -14.6%
Cc1ccccc1OCCSc1nnc(-c2ccncc2)n1C,,inconclusive: 184%
Cn1c(=O)oc2cc(S(=O)(=O)N3CCCC(C(=O)Nc4ccccn4)C3)ccc21 (centres undefined),,inconclusive: 5.87%
CCc1noc(C)c1C(=O)N(C)CC(=O)Nc1ccccc1Br,,inconclusive: 17.6%
CCN(C(=O)COC(=O)c1ccccc1SCC(=O)NC1CCCCCCC1)C1CCS(=O)(=O)C1 (centres undefined),"inconclusive: 0.0046 µM [falling, full curve, poor fit]",
O=C(CCCN1C(=O)NC2(CCCC2)C1=O)NCc1ccccc1,,inconclusive: 6.93%
N#Cc1ccccc1NC(=O)c1cc(=O)c2ccccc2o1,,inconclusive: -12.9%
O=C(O)c1ccccc1-c1ccccc1C(=O)Nc1ccc2c(c1)[nH]c(=O)c1ccccc12,,inconclusive: 12.5%
CN(CC(=O)Nc1ccc(Cl)c(C(F)(F)F)c1)C(=O)CCN1C(=O)C2CC=CCC2C1=O (centres undefined),,inconclusive: 46.1%
O=C(O)c1ccc(NC2CC(=O)N(Cc3ccccc3)C2=O)cc1 (centres undefined),,inconclusive: 24.2%
N#Cc1ccc(CN2CCN(CC(=O)NCCc3ccc(Cl)cc3Cl)CC2)cc1,"inconclusive: 6.51 µM [falling, single point]",
Cc1ccccc1NC(=O)CCN1CCN(C/C=C/c2ccccc2)CC1,,inconclusive: 30.8%
COc1ccc2oc(C(=O)OC(C)C(=O)Nc3ccc(N4CCOCC4)cc3)c(C)c2c1 (centres undefined),active: 7.31 µM,
Cc1ccc(NC(=S)N2CCCC2)cc1Cl,,inconclusive: 22.9%
Cc1cc(NC(=O)C2CCN(S(=O)(=O)Cc3ccccc3)CC2)ccc1-n1cnnn1,"inconclusive: 16.4 µM [falling, single point]",
CCOC(=O)c1cn(CC(=O)Nc2cccc(Cl)c2C)nn1,"inconclusive: 0.517 µM [activator, partial curve, poor fit]",
CCOc1ccc(N=C2NC(=O)/C(=C/C(=O)OC)S2)cc1,active: 25.9 µM,
CC1CCN(C(=O)c2cc(Cl)ccc2NC(=O)c2ccco2)CC1,,inconclusive: 452%
COc1ccc(S(=O)(=O)N2CCN(C3CC4CCC3C4)CC2)cc1 (centres undefined),"inconclusive: 6.51 µM [falling, single point]",
CCC(=O)Nc1ccc2nc(C3CC3)n(Cc3ccccc3)c(=O)c2c1,"inconclusive: 0.103 µM [activator, full curve, poor fit]",
O=C(NCc1ccc2c(c1)OCO2)C(=O)NCC1OCCCN1S(=O)(=O)c1cc(F)ccc1F (centres undefined),"inconclusive: 5.8 µM [activator, full curve]",
CC(=O)NNC(=O)CC(=O)Nc1nc(C23CC4CC(CC(C4)C2)C3)cs1,,inconclusive: -1.88%
COc1cccc(N2CC(C(=O)Nc3nnc(SCC(=O)c4ccccc4)s3)CC2=O)c1 (centres undefined),"inconclusive: 14.6 µM [activator, partial curve, poor fit]",
O=C(c1ccc(N2CCCCC2)c([N+](=O)[O-])c1)N(Cc1ccccc1)c1ccccn1,,inconclusive: -29.2%

# Retrieved by compound from the entries so far, five records:
Structure (SMILES),Potency,"lipid storage change, negative = inhibition"
CN(CCC#N)c1ccc(/C=C(\C#N)c2ccccn2)cc1,"inconclusive: 29.1 µM [falling, single point]",
COc1ccccc1N1C(=O)C2ON(c3ccccc3)C(c3ccc(N(C)C)cc3)C2C1=O (centres undefined),"inconclusive: 29.1 µM [falling, single point]",
COc1cccc(NC(=O)C/C(C)=N/NC(=O)c2ccccc2Cl)c1,,inconclusive: 14.7%
O=C(CCCN1C(=O)NC2(CCCC2)C1=O)NCc1ccccc1,,inconclusive: 6.93%
COc1ccccc1-c1cc(C(=O)NCc2ccco2)no1,,inconclusive: 18.1%
